Test results published in US20110059985A1, “NOVEL FORMULATION” (priority 2007, published 2011).
At least one read-out could not be matched to a standard name with certainty.

Assay: Stability in formulation, HPLC recovery after 3 months (Example 8)
Type: physicochemical

In the case of `Cc1cc(C2CCCCC2)n(O)c(=O)c1` [Ciclopirox Olamine], the “HPLC recovery after 3 months at 24° C.” value (in formulation 5 of example 6, initial API concentration 8%) is reported as ~104.4%.
With `Cc1ccc(Oc2ccccc2-c2csc(N=C3NCCCN3)n2)c(C)c1` [abafungin] the “HPLC recovery after 3 months at 24° C.” value (in formulation 2 of example 2/6, initial API concentration 10%) was ~102.6%.
In the case of `C[C@]12CCC(=O)C=C1CC[C@@H]1[C@@H]2[C@@H](O)C[C@@]2(C)[C@H]1CC[C@]2(O)C(=O)CO` [Hydrocortisone], the “HPLC recovery after 3 months at 24° C.” value (in formulation d of example 7, initial API concentration 1%) is reported as ~103.7%.
